# The other results are listed elsewhere or left out. The main result of the screen is listed elsewhere. These columns were measured beside it and carry no call. The list favours compounds with an active or inconclusive main result. Potencies come from curve fits of mixed quality, noted in brackets.
# Assay: Cell signaling CRE-BLA (Fsk stim)
# Settings: CHO CRE-bla reporter (cAMP response element driving beta-lactamase), forskolin EC10, beta-lactamase ratio; measured here: 460 nm blue channel
# How it was run: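 CRE-bla CHO reporter cells treated with compound titration plus EC10 NKH 477 (water-soluble forskolin), incubated 3 h at 37 °C; CCF4 loading 2 h at room temperature, 460/530 nm emission ratio read, AC50 values derived for positive or negative modulators.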
row,Compound,AC50
1,O=C(NCCN1CCOCC1)c1cc(-c2ccc(Br)cc2)on1,"25.1 µM [rising, single point]"
2,NC(=O)Cn1c(=O)oc2ccccc21,"0.251 µM [falling, single point]"
3,COc1cccc(/C=N/n2c(-c3ccco3)nc3ccccc3c2=O)c1,"2.51 µM [rising, full curve]"
4,CC(C)C[C@H](NC(=O)OC(C)(C)C)C(=O)N1CCC(C(=O)N[C@@H](Cc2ccccc2)C(=O)O)CC1,"3.16 µM [falling, full curve, poor fit]"
5,COc1ccc(C(=O)Nc2cccc3c2C(=O)NC3=O)cc1S(=O)(=O)N1CCOCC1,"2.51 µM [rising, full curve]"
6,COc1ccc(C(=O)Cn2nnc(-c3ccccc3F)n2)cc1,"5.01 µM [falling, single point]"
7,CCS(=O)(=O)n1nc(-c2ccc(OC)cc2)nc1SC,"15.8 µM [rising, single point]"
8,COc1cc2c(cc1OC)-c1cc(NC3CCCCCC3)nc(=O)n1CC2,"0.501 µM [rising, full curve]"
9,CCOC(=O)c1c(NC(=O)c2nn(CC)cc2Br)c(C#N)cn1-c1ccccc1,"2 µM [rising, full curve]"
10,COC(=O)c1ccc(C)c(NC(=O)c2c(-c3ccccc3)noc2C)c1,"2 µM [falling, partial curve]"
11,CCN1c2ccccc2-c2nc3ccccc3n2C1c1cccnc1 (stereo not drawn),"12.6 µM [rising, partial curve]"
12,CN(C(=O)c1cccc(C#N)c1)c1nnc(-c2ccccn2)s1,"25.1 µM [falling, single point]"
13,CCNc1ncc2nc(-c3ccccc3)c(=O)n(C[C@H]3CCCO3)c2n1,"10 µM [rising, partial curve]"
14,Cc1ccc2c(c1)c(C)c(C)n2CC(O)CN1CCOCC1 (stereo not drawn),"2 µM [rising, single point]"
15,COc1ccccc1Nc1nc(N)nc(CN2CCN(c3ccccc3)CC2)n1,"3.98 µM [falling, single point]"
16,CC(O)c1nc2ccc(Cc3ccc4nc(C(C)O)[nH]c4c3)cc2[nH]1 (stereo not drawn),"0.00398 µM [falling, full curve, poor fit]"
17,CC(=O)c1c(C)[nH]c(C(=O)OCC(=O)Nc2cc(C(F)(F)F)ccc2N2CCOCC2)c1C,"12.6 µM [rising, single point]"
18,CCn1c(SCC(=O)NCCOC)nc2sc(C)c(C)c2c1=O,"10 µM [rising, partial curve]"
19,Cc1noc(C)c1-c1nccc(N(C)C)n1,"25.1 µM [rising, partial curve]"
20,COc1cccc(C(=O)OCC(=O)Nc2ccccc2N2CCOCC2)c1,"25.1 µM [rising, single point]"
21,CCC(=O)Nc1ccc(S(=O)(=O)N2CCc3ccccc3C2)cc1,"3.16 µM [falling, full curve]"
22,Cc1nc2ccccc2c2nc(NC(=O)Cc3ccccc3)nn12,"10 µM [rising, partial curve]"

row,Compound,AC50
1,NCCOB(c1ccccc1)c1ccccc1,"25.1 µM [falling, partial curve, poor fit]"
2,CCOc1ccccc1Oc1c(C)oc2c(CN3CCN(C)CC3)c(O)ccc2c1=O,"5.01 µM [falling, single point]"
3,O=C(CSc1nnc(-c2ccc(Cl)cc2)n1Cc1ccco1)c1cccs1,"20 µM [falling, single point]"
4,COc1cccc(Cn2c(=O)c(-c3cccs3)nc3cnc(OC)nc32)c1,"5.01 µM [rising, partial curve]"
5,CN(C)CCCNc1oc(-c2ccc(Cl)cc2)nc1C#N,"25.1 µM [rising, single point]"
6,CN1/C(=C\C(=O)COC(=O)C2COc3ccccc3O2)C(C)(C)c2ccccc21 (stereo not drawn),"10 µM [rising, single point]"
7,O=C(Cc1cc(=O)[nH]c(=O)[nH]1)N1CCC(Cc2ccccc2)CC1,"7.94 µM [rising, partial curve]"
8,CCCCC[C@H](O)/C=C\[C@@H]1[C@H](O)CC(=O)[C@@H]1CCCCCCC(=O)O,"0.00126 µM [rising, full curve, poor fit]"
9,O=C(NCc1cccs1)Nc1cccs1,"0.00316 µM [falling, full curve, poor fit]"
10,Cc1ccc(-c2noc(CCC(=O)NCCCN3CCN(c4cccc(Cl)c4)CC3)n2)cc1,"12.6 µM [falling, partial curve]"
11,COc1ccc(NC(=O)c2cc(=O)c3ccccc3o2)cn1,"3.16 µM [rising, partial curve]"
12,CC(=O)N1CCN(c2nc3cc4c(cc3nc2NS(=O)(=O)c2ccccc2)OCCO4)CC1,"10 µM [rising, partial curve]"
13,COc1nc(N(C)C)nc(-n2nnc(C(C)=O)c2C)n1,"12.6 µM [rising, partial curve]"
14,COc1cc(N)c(Cl)cc1C(=O)N[C@H]1CCN(CCCOc2ccc(F)cc2)C[C@@H]1OC,"0.01 µM [rising, full curve, poor fit]"
15,COc1ccc(OC)c(Nc2nc(N)nc(-c3cc4ccccc4o3)n2)c1,"10 µM [rising, partial curve]"
16,CC1CCN(S(=O)(=O)c2ccc3c(c2)oc(=O)n3CC(=O)NCc2ccc3c(c2)OCO3)CC1,"10 µM [falling, partial curve]"
17,CCc1nc2c(c(=O)[nH]1)C1(CCCC1)Cc1ccccc1-2,"12.6 µM [rising, partial curve]"
18,O=C(/C=N/O)Nc1ccccc1,"3.98 µM [falling, single point]"
19,O=C(CSc1nc(-c2ccccc2Cl)ns1)NCc1ccco1,"0.00794 µM [falling, full curve]"
20,O=C(c1ccc(CSCc2ccccc2F)o1)N1CCN(c2ccc(N3CCOCC3)nn2)CC1,"2 µM [rising, partial curve]"
21,CCc1ccc(-c2nc(CN3CCC(C(=O)NCCc4ccc(OC)c(OC)c4)CC3)c(C)o2)cc1,"2.51 µM [falling, full curve]"

# In another format: entries from further up.
row	Compound	AC50
16	CC1CCN(S(=O)(=O)c2ccc3c(c2)oc(=O)n3CC(=O)NCc2ccc3c(c2)OCO3)CC1	10 µM [falling, partial curve]
17	CCc1nc2c(c(=O)[nH]1)C1(CCCC1)Cc1ccccc1-2	12.6 µM [rising, partial curve]
18	O=C(/C=N/O)Nc1ccccc1	3.98 µM [falling, single point]

# From PubChem BioAssay AID662 (National Center for Advancing Translational Sciences (NCATS), 2007)
